# Data reported in the supplement of paper PMC3334620.
# Whole data set: some 33,000 sequences, median “E-score (-0.5 to 0.5)” near -8e-05, cut for the highest 2% near 0.23. The list shows a part of the results.
# Biological target: T1, Nrg2 (UniProt P38082)
# T1 sequence: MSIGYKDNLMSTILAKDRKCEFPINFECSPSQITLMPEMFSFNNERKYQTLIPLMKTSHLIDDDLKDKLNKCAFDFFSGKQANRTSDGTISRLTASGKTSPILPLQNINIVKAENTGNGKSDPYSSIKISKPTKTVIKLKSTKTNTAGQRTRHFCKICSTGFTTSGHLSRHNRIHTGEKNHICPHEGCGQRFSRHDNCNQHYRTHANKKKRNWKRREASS
# Assay: PBM E-score (8-mer binding enrichment) (E-score (-0.5 to 0.5)); higher = stronger / more preferred TF binding
# Settings: protein concentration: 100 nM; construct: GST-full length
# In short: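 E-scores (a modified Wilcoxon-Mann-Whitney statistic) were assigned by the Universal PBM Analysis Suite to every ungapped eight-base word pooled with its reverse complement. The input came from universal all-10-mer Agilent arrays made double-stranded by primer extension and probed with GST-tagged yeast transcription factors at about 100-200 nM. Fluorescent anti-GST detected bound protein, and masliner normalised the scans.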
row,Sequence,PBM E-score
1,TCGCCAGA,-0.0661
2,AATAAACC,0.182
3,CTACTCGA,-0.035
4,AATTAGCA,0.206
5,TCACCGAA,0.0353
6,ACGTGATA,0.0362
7,AAAAAAGA,0.0551
8,CTAGTCGC,-0.253
9,CTAGACAA,-0.0221
10,CAGGAACA,-0.105
11,ACGGCCCC,-0.285
12,ACAGCAAG,0.135
13,AACTAGCC,-0.00471
14,GAAGCGGC,-0.141
15,GACGTGAA,-0.0822
16,AGGGGGGC,-0.351
17,ATTTACAA,0.0879
18,ATAACTTG,0.0563
19,TCCGTCAA,0.0779
20,AATAACCG,-0.0154
21,AATTTCAG,0.029
22,CCTTGCCC,0.131
23,AAAACTTA,0.0488
24,AGCCAAGG,0.201
25,TACATATA,0.111

row,Sequence,PBM E-score
1,CCATCTTC,-0.015
2,TCACAGGA,0.0134
3,TGTTGTAA,0.102
4,AGACTAGA,-0.328
5,ACACCAAC,-0.137
6,GGTCCGAA,0.225
7,ACGCTACA,0.11
8,GCGGAACC,0.112
9,CAACGTGA,-0.129
10,CCCGAGTC,-0.117
11,CCGCGCCG,-0.0754
12,ATGATGCG,0.0752
13,TACGTTCA,0.00829
14,CACACCAC,0.175
15,AATCCTTC,-0.215
16,ATGCGCGG,0.121
17,AAACTGCG,-0.0689
18,GTTTGTTA,0.0909
19,ATGGCAGA,0.145
20,ATTGATCG,0.103
21,CACGTACG,-0.0872
22,TGAGAGAA,-0.00484
23,AGACGGTC,-0.129
24,ATAGCGAA,0.135
25,GTCACAGA,0.136

row,Sequence,PBM E-score
1,CAACTCGC,0.186
2,CCCTCTAA,-0.229
3,ACCTAGAT,0.00889
4,CGTCCGTA,-0.106
5,CAACAATC,0.168
6,CTTGTCCA,0.0618
7,CTTATTTA,0.0567
8,TAGGCCGA,-0.0619
9,GCACCGGA,-0.167
10,CCAATACC,0.0351
11,AAAAGGTC,-0.12
12,CTGTTTTA,0.118
13,CAACATGC,0.0729
14,CGAGTGGA,-0.0407
15,CGGCGCGC,0.256
16,ATCCAAAC,0.184
17,AGATTCAC,-0.202
18,AACCAGCC,-0.0847
19,ACGTGTTC,-0.115
20,TACGCTAA,0.0824
21,TATATGGA,0.0065
22,CAAAAAAA,0.245
23,CATCAGCG,-0.213
24,AGTTCCAC,0.0885
25,ACCTTCCT,-0.227

row,Sequence,PBM E-score
1,CCGTAGAC,-0.0815
2,AACCCCTC,-0.0867
3,CAATAACG,0.152
4,TCTGTGAA,0.0963
5,CCCGATAA,-0.109
6,GTATTGCA,-0.0204
7,TATATTCA,0.225
8,CCAAGTGG,0.0232
9,CGCTCGGA,0.0984
10,TAGTACCA,-0.0772
11,CAGTTATA,0.114
12,CAGTCGTC,-0.195
13,CATCGAGC,0.0814
14,CTCCGGTC,-0.0492
15,GAATGGCC,-0.0655
16,CCTCCTGA,-0.183
17,CTACTTAA,-0.136
18,CATTCAAG,0.135
19,GAGTATGC,0.115
20,AGTCCTAG,-0.221
21,CCTCCGTA,-0.0868
22,GACACGTA,-0.199
23,GGCTCACA,-0.0681
24,AGCGTCTC,-0.0438
25,AAGGACCG,0.011

row,Sequence,PBM E-score
1,CATGTCGG,0.0655
2,CAGCGTAG,-0.0519
3,ACTTGACC,-0.104
4,ACCGTGAC,-0.161
5,AAAAATGG,0.129
6,TCCATACA,0.0616
7,CGTGGTAC,-0.172
8,TATTTCCA,0.0167
9,AAGCGTTG,0.0514
10,AGGAGAGC,-0.332
11,CTATAGCA,0.0908
12,CGGAGCCC,-0.257
13,AGAAGACA,0.0609
14,ATACAGTA,0.0537
15,CAGCCGCG,0.0167
16,CCGGGCAG,-0.164
17,AGACATAC,0.0174
18,AGAGGCAT,-0.0394
19,CGGATTTA,0.0741
20,CCAGCAAC,-0.00319
21,GAATGTTA,0.134
22,AGTGTGAA,0.186
23,AGCGTCCG,-0.159
24,AAAGAGAC,0.0466
25,ATGCATCG,0.0353

row,Sequence,PBM E-score
1,ACGGCGAC,0.135
2,AATTTAGG,0.117
3,AAGCATAA,-0.00973
4,GATGCTAA,0.149
5,ACTCCGGC,0.00303
6,ATCGTAGC,0.0886
7,GACAACTA,0.158
8,AGCGTATC,-0.0443
9,CGTAGGCC,-0.141
10,GCCCTCGA,-0.113
11,ACCAGCAA,0.245
12,CTACCCTC,0.103
13,ACGAGCCT,-0.18
14,AGCTAGAC,-0.15
15,GATTGGCA,-0.0954
16,TCAATCCA,0.0713
17,ATGGGTTG,0.181
18,CTAAGCAG,-0.148
19,GCACCCAA,-0.0969
20,GTCATGTA,-0.264
21,GCGATCAA,0.0144
22,ATGAGATA,0.178
23,CCGGTCCG,-0.199
24,TCCGAGGA,-0.0861
25,CCCGTCTC,-0.166

# As a short view, some entries already given:
row,Sequence,PBM E-score
7,TATATTCA,0.225
8,CCAAGTGG,0.0232
9,CGCTCGGA,0.0984
10,TAGTACCA,-0.0772
11,CAGTTATA,0.114
12,CAGTCGTC,-0.195

# (cont.)

row,Sequence,PBM E-score
1,GGACTTAC,-0.0923
2,TCCGATCA,0.0427
3,GTCAGTGA,0.128
4,CACTACGG,0.151
5,ACGACGGC,0.0416
6,ACATATAT,0.0966
7,ACTTTGCC,0.15
8,AGTGACGG,0.0699
9,GTATATAA,0.178
10,ATTGGACG,0.00042
11,AGAGAAAA,0.12
12,ATTTCGGC,0.145
13,CCCTTTGC,0.131
14,CAGCTGCC,-0.0817
15,AGTGTTTA,0.185
16,AGCCAAGA,-0.128
17,AACTTAGC,-0.0853
18,ACAATCCA,0.129
19,AGATAAAG,0.0224
20,ACACGAGC,-0.065
21,ATGACTCG,-0.164
22,GGATTGCC,-0.0463

# Retrieved one by one from above:
row,Sequence,PBM E-score
11,AGAGAAAA,0.12
20,ACACGAGC,-0.065
14,CAGCTGCC,-0.0817
13,CCCTTTGC,0.131
22,GGATTGCC,-0.0463
6,ACATATAT,0.0966
